Reference: article PMC8176221, “Identification and Characterization of Two Transmembrane Proteins Required for Virulence of Ustilago maydis” (Frontiers in Plant Science, 2021)
No constants are given. Whether binding was seen depends on the method and setting.

Chains of the proteins cited; added tags and fusions are not shown. Residues count along the entry.
UniProt A0A0D1CVX2, residues 120-335: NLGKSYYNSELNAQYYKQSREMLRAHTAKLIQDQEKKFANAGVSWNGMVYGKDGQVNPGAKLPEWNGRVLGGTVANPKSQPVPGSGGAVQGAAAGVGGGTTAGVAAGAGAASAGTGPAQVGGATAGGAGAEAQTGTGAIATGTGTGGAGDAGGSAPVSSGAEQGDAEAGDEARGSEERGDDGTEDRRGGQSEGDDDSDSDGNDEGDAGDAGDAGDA

Biological target: C-terminal domain (CTD) of Vmp2 (aa 120-335) (Ustilago maydis)
Assay: SEC-MALS; Tag-free Vmp2CTD in HEPES buffer (20 mM HEPES, 200 mM NaCl, 20 mM KCl, pH 7.5); Superdex 75 Increase 10/300 (results); 100 μl of a 50 μM protein solution injected; both purified

Question: How did the binding turn out when “C-terminal domain (CTD) of Vmp2 (aa 120-335) (from UniProt A0A0D1CVX2 120-335) (domain or fragment)” was run?
Answer: no binding (tested: 50 μM protein solution injected)
